# Measured values from PubChem BioAssay AID504467 (National Center for Advancing Translational Sciences (NCATS), 2011).
# Screen size: about 330,000 compounds; about 7,700 (2.3%) were called active. This list was built around the results that the source calls inconclusive (neither active nor inactive); the mix of calls is not that of the screen. Calls come from the whole dose curve; as a rule, active = well fitted inhibition curve with a large enough effect; inconclusive = small, poorly fitted or top-dose-only effect, or effect the other way; inactive = flat fitted curve, though single readings scatter. A potency beside an inconclusive call is a rough fit, not a confirmed value.
# Assay: qHTS screen for small molecules that inhibit ELG1-dependent DNA repair in human embryonic kidney (HEK293T) cells expressing luciferase-tagged ELG1; note: nearly all actives have a fitted effect of over 55% in size
# Details: HEK293T ELG1-luciferase reporter, luminescence, 16 h, DNA damage induced by 5-fluorouridine; activity change, negative = inhibition: at 46.1 µM (top of the series)
# Summary of the method: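 Reporter activity after DNA damage by 5-fluorouridine is monitored. Compound-treated cells incubate 16 hr at 37 °C, then ONE-Glo is added for 30 min before luminescence reading.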
# % is set by controls: 0 for no effect and ±100 for the full control effect; potency is the fitted concentration of half-maximal effect.
Structure (SMILES),Potency,"activity change, negative = inhibition"
C/C(=N/N=C/c1ccc(N(C)C)cc1)c1ccccc1,"inconclusive: 0.411 µM [activator, full curve]",
COc1cccc(/C=C/C(=O)c2ccc3c(c2)OCCO3)c1OC,"inconclusive: 0.794 µM [activator, partial curve, poor fit]",
COc1ccc(CNC(=O)COC(=O)CCCOc2ccc(Cl)cc2Cl)cc1OC,"inconclusive: 14.6 µM [activator, single point]",
Cc1cc(=O)[nH]c(Sc2c(-c3ccccc3)c3ccccc3[nH]c2=O)n1,"inconclusive: 18.4 µM [activator, partial curve, poor fit]",
CCOC(=O)c1cc(-c2ccccc2)nc2nc(N(CC)CC)sc12,"inconclusive: 29.1 µM [inhibitor, single point]",
CC(C)c1cc(C(=O)N2CCCC(C(=O)c3ccc4ccccc4c3)C2)on1 (stereo not given),,inactive: -10.8%
CN1CCN(C(=O)c2sc(=S)n(-c3ccccc3)c2N)CC1,,inactive: 11.7%
CC(CNC(=O)c1ccccc1Cl)c1ccccc1 (stereo not given),"inconclusive: 14.6 µM [activator, partial curve]",
CCOc1cccc(-c2nn3c(-c4ccccn4)nnc3s2)c1,"inconclusive: 18.4 µM [inhibitor, single point]",
Cc1cc(C(=O)NNc2ccc(C)c(C)c2)no1,active: 8.2 µM,
COc1ccc(C(C)=O)c(Oc2nc(CN3CCOCC3)nc3scc(-c4cccs4)c23)c1,"inconclusive: 20.6 µM [inhibitor, single point]",
Nc1nnc(SCC(=O)OCC(=O)c2ccccc2Br)s1,,inactive: 5.47%
COc1ccc(-c2cc(-c3nnc(COC(=O)c4ccncc4)o3)c3ccccc3n2)cc1OC,active: 18.3 µM,
COCCn1c(SC2CCCCC2=O)nnc1-c1ccncc1 (stereo not given),,inactive: 15.7%
COC(=O)c1sc(-c2cccs2)cc1N,"inconclusive: 14.6 µM [activator, partial curve]",
O=C(O)c1cccc(Nc2c3ccccc3nc3ccccc23)c1,,inactive: -10.5%
Cn1nc(-c2ccc(Cl)cc2)c2cc(C(=O)N3CCN(C(=O)c4ccco4)CC3)sc21,active: 8.2 µM,
CC(C)(C)C1CCC2(CC1)C(C#N)=C(SCC(=O)NC1CCCCC1)NC(=O)C2C#N (stereo not given),"inconclusive: 23.1 µM [inhibitor, single point]",

Structure (SMILES),Potency,"activity change, negative = inhibition"
CC(O)CNCCOc1ccccc1-c1ccccc1 (stereo not given),"inconclusive: 1.64 µM [inhibitor, full curve, poor fit]",
COc1ccc(-c2[nH]ncc2[C@@H]2C[C@H]3CN(Cc4ccccc4C)C(=O)[C@]34CCCN24)cc1,"inconclusive: 20.6 µM [inhibitor, single point]",
CCN=C1NN=C(c2cc(C)n(CCc3ccccc3)c2C)CS1,,inactive: 21.5%
O=C(NCc1cccs1)c1ccc(Cl)c(S(=O)(=O)N2CCCC2)c1,"inconclusive: 29.1 µM [inhibitor, single point]",
Cc1ccc2nc(N3CCN(C(=O)c4ccc(F)cc4)CC3)c(C#N)cc2c1,"inconclusive: 20.6 µM [inhibitor, single point]",
O=C(CCn1cnc(-c2ccccc2)c1-c1ccccc1)N/N=C/c1ccc(O)cc1,"inconclusive: 29.1 µM [inhibitor, single point]",
CC(C)(C)c1ccc(OCCCC(=O)Nc2ccc(S(N)(=O)=O)cc2)cc1,"inconclusive: 29.1 µM [inhibitor, single point]",
CC1(C)C2CCC1(C)C(OC(=O)CNc1ccccc1)C2 (stereo not given),"inconclusive: 16.4 µM [inhibitor, single point]",
O=C(O)c1cc(N/N=C/c2ccc(N3CCOCC3)cc2)ccc1Cl,"inconclusive: 1.16 µM [activator, partial curve]",
O=C1CC2C(=O)NCCN2C(=NC(=O)c2ccc(Cl)cc2)N1 (stereo not given),,inactive: 3.87%
O=C(c1ccc([N+](=O)[O-])cc1)N1CCN(Cc2ccccc2[N+](=O)[O-])CC1,"inconclusive: 29.1 µM [inhibitor, single point]",
CN(C)c1ccc(NC(=O)Cn2c(=O)n(Cc3ccccc3)c(=O)c3ccccc32)cc1,,inactive: -16.1%
COc1ccc2oc(C(=O)OCC(=O)N3CC(C)CC(C)C3)c(C)c2c1 (stereo not given),,inactive: -1.71%
COC(=O)[C@@H]1CCCN1C(=O)CCc1nnc(CCC2CCCCC2)o1,"inconclusive: 29.1 µM [activator, single point]",
CC(C)C[C@H](NC(=O)c1nc[nH]c1C(=O)N1CCNCC1)C(=O)OCc1ccccc1,,inactive: 2.63%
O=c1cc(-c2c(F)c(F)c(F)c(F)c2F)oc2c(F)c(F)c(F)c(F)c12,"inconclusive: 29.1 µM [inhibitor, single point]",
Cc1ccc2c(c1)c1c3n2CCN(C(=O)CN2CCN(C)CC2)C3CCC1 (stereo not given),,inactive: 16.6%

# Among those listed so far, two contain fluorine:
Structure (SMILES),Potency,"activity change, negative = inhibition"
Cc1ccc2nc(N3CCN(C(=O)c4ccc(F)cc4)CC3)c(C#N)cc2c1,"inconclusive: 20.6 µM [inhibitor, single point]",
O=c1cc(-c2c(F)c(F)c(F)c(F)c2F)oc2c(F)c(F)c(F)c(F)c12,"inconclusive: 29.1 µM [inhibitor, single point]",
